Patent US6586617B1, “Sulfonamide derivatives” (Sumitomo Chemical Takeda Agro Company, Limited, priority 1999, dated 2003)
Like-named read-outs stand apart in the source and are kept apart here. Some entries share one result that the patent states for a list of compounds.

How the values were obtained:
[1] = system: rice blast (Pyricularia oryzae); type: in vivo
[2] = system: apple Alternaria leaf blotch (Alternaria mali); test: Test Example 3: protective effects against apple Alternaria leaf blotch; type: in vivo
[3] = spray 200 ppm, 10 ml/pot, young rice plants (Asahi No. 4), natural inoculation, lesion area vs untreated after a week
[4] = spray solution as in Test Example 1 (200 ppm), 10 ml/pot, apple seedlings (Starking-Delicious)

| Compound | protection score ([1]; in vivo) | further results |
| --- | --- | --- |
| 2′-Azoxycyano-4′-chloro-N-methyl-p-toluenesulfonanilide [Compound No. 393] | 3 (key: 3: the lesion area ratio on the treated plants relative to that on the untreated plants is less than 14%; the ratio is from 15 to 29%; 1: the ratio is from 30 to 55%; 0: the ratio is more than 56%) |  |
| Cc1ccc(S(=O)(=O)N(C)c2ccc3c(c2)OCO3)cc1 [Compound No. 43] | 3 (key: 3: the lesion area ratio on the treated plants relative to that on the untreated plants is less than 14%; the ratio is from 15 to 29%; 1: the ratio is from 30 to 55%; 0: the ratio is more than 56%) |  |
| Cc1ccc(S(=O)(=O)N(CCBr)c2ccc(Cl)cc2[N+](=O)[O-])cc1 [Compound No. 305, N-(2-Bromoethyl)-4′-chloro-2′-nitro-p-toluenesulfonanilide] |  | protection score [1, 3]: 3 (the lesion area ratio on the treated plants relative to that on the untreated plants is less than 14%); protection score ([2]; in vivo): 3 (key: 3: the lesioned area ratio is less than 10%; the ratio is from 11 to 20%; the ratio is from 21 to 50%; 0: the ratio is more than 51%) |
| COc1ccc(S(=O)(=O)N(C)c2ccc(OC)cc2[N+](=O)[O-])cc1 [compound 174] | 3 (key: 3: the lesion area ratio on the treated plants relative to that on the untreated plants is less than 14%; the ratio is from 15 to 29%; 1: the ratio is from 30 to 55%; 0: the ratio is more than 56%) |  |
| COc1ccc(N(C)S(=O)(=O)c2cccc3ccccc23)c([N+](=O)[O-])c1 [compound 201] | 3 (key: 3: the lesion area ratio on the treated plants relative to that on the untreated plants is less than 14%; the ratio is from 15 to 29%; 1: the ratio is from 30 to 55%; 0: the ratio is more than 56%) |  |
| Cc1ccc(S(=O)(=O)N(C)c2ccc(F)cc2[N+](=O)[O-])cc1 [compound 262, 4′-Fluoro-N-methyl-2′-nitro-p-toluenesulfonanilide] |  | protection score [1, 3]: 3 (the lesion area ratio on the treated plants relative to that on the untreated plants is less than 14%) |
| CN(c1ccc(Cl)cc1[N+](=O)[O-])S(=O)(=O)c1ccccc1 [compound 276] | 3 (key: 3: the lesion area ratio on the treated plants relative to that on the untreated plants is less than 14%; the ratio is from 15 to 29%; 1: the ratio is from 30 to 55%; 0: the ratio is more than 56%) | protection score [2, 4]: 3 (the lesioned area ratio is less than 10%) |
| CN(c1ccc(Cl)cc1[N+](=O)[O-])S(=O)(=O)c1cccc(C(F)(F)F)c1 [compound 361] | 3 (key: 3: the lesion area ratio on the treated plants relative to that on the untreated plants is less than 14%; the ratio is from 15 to 29%; 1: the ratio is from 30 to 55%; 0: the ratio is more than 56%) |  |
| CCN(c1ccc(Cl)cc1[N+](=O)[O-])S(=O)(=O)c1ccc(C(F)(F)F)cc1 [compound 362] | 3 (key: 3: the lesion area ratio on the treated plants relative to that on the untreated plants is less than 14%; the ratio is from 15 to 29%; 1: the ratio is from 30 to 55%; 0: the ratio is more than 56%) |  |
| Cc1ccc(S(=O)(=O)N(C)c2nc3ccccn3c2[N+](=O)[O-])cc1 [compound 519] | 3 (key: 3: the lesion area ratio on the treated plants relative to that on the untreated plants is less than 14%; the ratio is from 15 to 29%; 1: the ratio is from 30 to 55%; 0: the ratio is more than 56%) |  |
| CON(c1ccc([N+](=O)[O-])cc1C(F)(F)F)S(=O)(=O)c1ccc(C)cc1 [compound 538] | 3 (key: 3: the lesion area ratio on the treated plants relative to that on the untreated plants is less than 14%; the ratio is from 15 to 29%; 1: the ratio is from 30 to 55%; 0: the ratio is more than 56%) | protection score [2, 4]: 3 (the lesioned area ratio is less than 10%) |
